The values below come from PMC7819943, “Rice protein-binding microarrays: a tool to detect cis-acting elements near promoter regions in rice”.

Chains of the proteins cited; added tags and fusions are not shown.
UniProt Q0JBA9, entry or part of it: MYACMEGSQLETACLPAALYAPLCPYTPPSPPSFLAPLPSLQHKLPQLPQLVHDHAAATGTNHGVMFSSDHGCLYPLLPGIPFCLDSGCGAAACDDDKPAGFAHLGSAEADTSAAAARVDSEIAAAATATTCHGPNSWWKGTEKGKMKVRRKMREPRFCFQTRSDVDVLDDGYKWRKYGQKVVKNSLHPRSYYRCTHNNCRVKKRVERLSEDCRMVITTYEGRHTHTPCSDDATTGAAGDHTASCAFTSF

The list shows a part of the results.

The target in the assay is OsWRKY34 (Oryza sativa, UniProt Q0JBA9 1-250). The assay is described as follows: protein-binding microarray (RPBM); PBS, 2% BSA, 51.3 ng/ul salmon testes DNA, 50 uM zinc acetate, 200 nM TF, 25 C, 1 h; high values mean tight binding. The following applies: protein: recombinant; tags: N-terminal polyhistidine and DsRed monomer fusion (pET32a); label: CyDye5-dUTP incorporated in the synthesized complementary strand; 3' TTTTT single-stranded linker to array surface; dsDNA, one strand shown. In a few lines:
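Polyhistidine-tagged DsRed fusions of transcription factors, joined at the N-terminus, were expressed in E. coli BL21-CodonPlus and isolated on Ni–NTA. They were incubated at 200 nM for 1 h at 25 °C on a custom Agilent array, double-stranded and BSA-blocked, in PBS with 2% BSA, salmon testes DNA and 50 µM zinc acetate. The binding signal is per-feature fluorescence intensity (arbitrary units) read on an Axon 4000B scanner after washing.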
With “CATACTAATTCAGTTATTCCGATGCCATTTTCTTGTTGAACGGAGTCACCTAGTGCAG”, the binding signal is 10400 fluorescence intensity (a.u.). In the case of “TGCCCTTCTGCCTATTATGTCCATTGCTTTGCACATCAACCGGAGTCACCTAGTGCAG”, the binding signal was 9900 fluorescence intensity (a.u.).

For “GCCGCCTACTACTTCTCCGAGGGTTCAAACCTCACCTTCACGGAGTCACCTAGTGCAG”, the binding signal is 12100 fluorescence intensity (a.u.). For “CCGCACCGTCCGCCGCGCCCTGCTCCGTCCTGCTCCGCCGCGGAGTCACCTAGTGCAG”, the binding signal is 8430 fluorescence intensity (a.u.).

For the sequence “AGGGATAGATTGGCTTAGGGGCGGGTGGGTCTAGAGATTTCGGAGTCACCTAGTGCAG”, the binding signal was 27000 fluorescence intensity (a.u.).

Regarding “CAAAACATACAGGGCCCATATGCTCCTTTAATTTTTCTTTCGGAGTCACCTAGTGCAG”, the binding signal was 8120 fluorescence intensity (a.u.). Take “GCGACCTGAAACTCCGGGAATTCACACGTTTTTCTGCAGACGGAGTCACCTAGTGCAG”: the binding signal was 8320 fluorescence intensity (a.u.). As for “TTATTGTTATTATTATCATTTCACAGGAAGTACTTGATCCCGGAGTCACCTAGTGCAG”, the binding signal is 8710 fluorescence intensity (a.u.). The result for “CACTACTATGATTCTTGGGCACATACTTCTCCTACTGATTCGGAGTCACCTAGTGCAG” reads 12100 fluorescence intensity (a.u.); that for “AACAACCACTTGCCATTGCCCCACACCCACCTCCTCGCCTCGGAGTCACCTAGTGCAG”, 13000 fluorescence intensity (a.u.). The result for “AACGACCTTATCATCTCGTTTCGCATGTTTCCGCACCGTACGGAGTCACCTAGTGCAG” reads 10400 fluorescence intensity (a.u.); that for “CATATTATTATAATATTATAAGTCGTTTAACTATTATTTTCGGAGTCACCTAGTGCAG”, 8740 fluorescence intensity (a.u.). The result for “AGTTCATGTTCATTCCGCATCCCCTTCTCTCGGTTTCTCCCGGAGTCACCTAGTGCAG” reads 11800 fluorescence intensity (a.u.); that for “TTGCATTTTTGACTGTTTGCGTTGACTCCCTCACTTCTTCCGGAGTCACCTAGTGCAG”, 16400 fluorescence intensity (a.u.). Turning to “ATCAGATTTACCGGCGTATCTTGACGGCCACGTCAGTCCCCGGAGTCACCTAGTGCAG”, the binding signal is 8210 fluorescence intensity (a.u.). The result for “CCCTGTTCCATTTGTACCCTAACTCAGGACCCTAACTAATCGGAGTCACCTAGTGCAG” reads 8790 fluorescence intensity (a.u.); that for “CCTCGACTCCGGCGACCACCCCGCCGCGCTCCACCTCGCCCGGAGTCACCTAGTGCAG”, 11200 fluorescence intensity (a.u.); that for “TGTTTCTCCAGTCTCCACATCACTGCGTGTCTGCGTCGCCCGGAGTCACCTAGTGCAG”, 8790 fluorescence intensity (a.u.). The result for “CTCGCCCTCGCCCAACGCGCGGTTTTACCCTCTTTTTTTTCGGAGTCACCTAGTGCAG” reads 8680 fluorescence intensity (a.u.); that for “TCTCTTCTCCTCGTGCTCGTCACTCGCGAGCAAATACATCCGGAGTCACCTAGTGCAG”, 8320 fluorescence intensity (a.u.); that for “AGGGTAGGGTTCTGGTGGTGGTGCTAGTGTGTGTGGGTGTCGGAGTCACCTAGTGCAG”, 9070 fluorescence intensity (a.u.). The result for “ACACCTTTCACACATCCCTTTTCCCTTTCTCCGCGTCGGCCGGAGTCACCTAGTGCAG” reads 8690 fluorescence intensity (a.u.); that for “TTTGTGCCTTCTACGAATTCCTCGTTTCCCTTTTTTTTCGCGGAGTCACCTAGTGCAG”, 9050 fluorescence intensity (a.u.). As for “CTTTGGGTTGGGGTGTCCCATTTTTCCTTCTTCGATGATACGGAGTCACCTAGTGCAG”, the binding signal is 12000 fluorescence intensity (a.u.). The result for “ATCAATATTTTCGCTTTATGCTTATGCTTACTAGTCAAAACGGAGTCACCTAGTGCAG” reads 11100 fluorescence intensity (a.u.). The result for “AACCCGGTCATCTGCATCATCTCCTCAACAGCGTGTTACACGGAGTCACCTAGTGCAG” reads 11300 fluorescence intensity (a.u.); that for “CACCGGTGCTCCCACGCAGATCGCGCCTCTCCTGCAGCTCCGGAGTCACCTAGTGCAG”, 8170 fluorescence intensity (a.u.). The result for “AAAGGCTTACGTACTAACTTTTTCTTATTAAATTCTTATTCGGAGTCACCTAGTGCAG” reads 8460 fluorescence intensity (a.u.); that for “ATCTACTACTATTCTACTCTACTCGCAAGTCTCACAAACACGGAGTCACCTAGTGCAG”, 8740 fluorescence intensity (a.u.); that for “TTTACTCCCAATTCATCTATAAATATTCCGTCTGTATTTTCGGAGTCACCTAGTGCAG”, 10200 fluorescence intensity (a.u.). As to “ATTCGCCTTTATAACCGTAAGGCCTTTTTCCTTTTCTGAACGGAGTCACCTAGTGCAG”, the binding signal is 9040 fluorescence intensity (a.u.). For the sequence “GACATTATTCTAATATCTTATGTTTTTTAGTTTTGTTCTACGGAGTCACCTAGTGCAG”, the binding signal was 9350 fluorescence intensity (a.u.). The result for “TAGCCGTTTTTTTTTTCTTACTTATCGCTTTCTCCTCGTTCGGAGTCACCTAGTGCAG” reads 10000 fluorescence intensity (a.u.); that for “GATCGTCTCTTTTTCTTTCTTTCTTTCCTTCCTCCACAACCGGAGTCACCTAGTGCAG”, 8040 fluorescence intensity (a.u.). The result for “GTCACGGTCTCTGTCACCTCATTAACTTGCTCCCTACACCCGGAGTCACCTAGTGCAG” reads 12800 fluorescence intensity (a.u.); that for “CCTCGTTCAGTCGTTCCTGCGAGCCCTACCGTGTGCTCACCGGAGTCACCTAGTGCAG”, 11600 fluorescence intensity (a.u.). In the case of “AGGCTACGTCCTATATATATATTCACCTGCTTTAATTTGCCGGAGTCACCTAGTGCAG”, the binding signal was 9280 fluorescence intensity (a.u.). Turning to “CGTACTCTCACCAAACTCGGCCTGCGCCAGGCGCCAGACACGGAGTCACCTAGTGCAG”, the binding signal was 8850 fluorescence intensity (a.u.). The result for “CCGGCCACCGACCACCGCCCCTGCGTTCCCGCTCTTCTCTCGGAGTCACCTAGTGCAG” reads 10200 fluorescence intensity (a.u.); that for “CCCTCTGATCCTAACTGTAATATGTTTGAAGCTTGCAAATCGGAGTCACCTAGTGCAG”, 9760 fluorescence intensity (a.u.); that for “ACAAACCGGGGCGGGCGGGGCATCCACAACCAACCAACTCCGGAGTCACCTAGTGCAG”, 11200 fluorescence intensity (a.u.). The result for “TTCATCGTTATCCTAATCTGATTTCAATTCAAAATTGTTCCGGAGTCACCTAGTGCAG” reads 8030 fluorescence intensity (a.u.).
